Test results: the supplement of paper PMC10849652
This is one part of the list.

Amino acid sequences for entries named in this document (tags omitted). A change or cut given only in a name is not applied to a line headed by its entry.
UniProt Q96FF9: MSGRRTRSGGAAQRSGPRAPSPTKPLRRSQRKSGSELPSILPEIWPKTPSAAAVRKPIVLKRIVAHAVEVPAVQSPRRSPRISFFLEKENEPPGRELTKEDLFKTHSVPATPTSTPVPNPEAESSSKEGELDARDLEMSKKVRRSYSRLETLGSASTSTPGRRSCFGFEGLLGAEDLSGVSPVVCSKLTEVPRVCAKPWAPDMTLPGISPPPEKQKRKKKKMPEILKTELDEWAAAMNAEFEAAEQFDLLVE
UniProt O75419: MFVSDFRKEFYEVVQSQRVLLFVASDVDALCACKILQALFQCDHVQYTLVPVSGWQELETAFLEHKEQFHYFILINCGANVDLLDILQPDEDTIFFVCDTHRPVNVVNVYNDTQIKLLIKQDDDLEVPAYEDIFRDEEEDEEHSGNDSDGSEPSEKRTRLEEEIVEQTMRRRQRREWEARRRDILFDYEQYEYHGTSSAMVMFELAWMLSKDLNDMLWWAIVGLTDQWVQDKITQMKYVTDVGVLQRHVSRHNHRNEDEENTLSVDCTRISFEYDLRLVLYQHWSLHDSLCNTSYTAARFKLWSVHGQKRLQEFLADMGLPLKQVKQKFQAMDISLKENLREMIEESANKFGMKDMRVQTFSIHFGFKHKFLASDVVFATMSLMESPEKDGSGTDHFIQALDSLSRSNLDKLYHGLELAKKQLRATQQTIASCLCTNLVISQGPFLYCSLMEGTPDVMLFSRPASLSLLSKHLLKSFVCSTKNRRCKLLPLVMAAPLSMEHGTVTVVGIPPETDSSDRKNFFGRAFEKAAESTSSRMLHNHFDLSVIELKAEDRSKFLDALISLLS
UniProt Q8IWY9: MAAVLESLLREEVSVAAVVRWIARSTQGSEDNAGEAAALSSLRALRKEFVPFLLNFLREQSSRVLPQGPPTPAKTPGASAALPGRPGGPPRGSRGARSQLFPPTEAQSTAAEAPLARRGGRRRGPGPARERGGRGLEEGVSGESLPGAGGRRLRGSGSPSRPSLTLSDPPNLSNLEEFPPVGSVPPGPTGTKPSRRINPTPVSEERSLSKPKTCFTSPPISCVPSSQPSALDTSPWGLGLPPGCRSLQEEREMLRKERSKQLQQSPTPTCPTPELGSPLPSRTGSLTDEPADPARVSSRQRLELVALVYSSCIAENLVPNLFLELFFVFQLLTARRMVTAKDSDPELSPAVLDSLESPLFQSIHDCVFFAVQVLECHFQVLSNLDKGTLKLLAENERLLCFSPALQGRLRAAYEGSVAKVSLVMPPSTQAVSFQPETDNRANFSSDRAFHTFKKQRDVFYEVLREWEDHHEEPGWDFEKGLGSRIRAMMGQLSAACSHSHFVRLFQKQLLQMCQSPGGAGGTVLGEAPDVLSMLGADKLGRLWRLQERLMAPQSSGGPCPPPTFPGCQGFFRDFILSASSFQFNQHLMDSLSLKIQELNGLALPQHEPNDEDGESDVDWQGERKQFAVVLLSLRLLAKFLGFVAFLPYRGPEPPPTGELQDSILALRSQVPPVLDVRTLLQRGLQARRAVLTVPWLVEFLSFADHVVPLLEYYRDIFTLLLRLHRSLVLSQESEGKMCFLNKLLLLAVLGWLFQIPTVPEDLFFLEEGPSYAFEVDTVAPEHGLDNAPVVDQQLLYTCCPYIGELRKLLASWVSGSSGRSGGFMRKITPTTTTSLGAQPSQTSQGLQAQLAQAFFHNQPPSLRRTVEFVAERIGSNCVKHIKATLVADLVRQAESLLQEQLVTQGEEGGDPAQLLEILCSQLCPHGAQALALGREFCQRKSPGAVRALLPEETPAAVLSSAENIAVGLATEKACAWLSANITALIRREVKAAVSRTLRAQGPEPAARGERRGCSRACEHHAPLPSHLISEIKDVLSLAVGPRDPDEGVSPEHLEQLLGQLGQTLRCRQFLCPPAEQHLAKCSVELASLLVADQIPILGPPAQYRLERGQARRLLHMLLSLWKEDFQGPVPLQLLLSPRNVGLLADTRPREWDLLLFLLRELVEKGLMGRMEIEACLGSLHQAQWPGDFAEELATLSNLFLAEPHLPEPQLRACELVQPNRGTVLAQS
UniProt Q6ZMG9: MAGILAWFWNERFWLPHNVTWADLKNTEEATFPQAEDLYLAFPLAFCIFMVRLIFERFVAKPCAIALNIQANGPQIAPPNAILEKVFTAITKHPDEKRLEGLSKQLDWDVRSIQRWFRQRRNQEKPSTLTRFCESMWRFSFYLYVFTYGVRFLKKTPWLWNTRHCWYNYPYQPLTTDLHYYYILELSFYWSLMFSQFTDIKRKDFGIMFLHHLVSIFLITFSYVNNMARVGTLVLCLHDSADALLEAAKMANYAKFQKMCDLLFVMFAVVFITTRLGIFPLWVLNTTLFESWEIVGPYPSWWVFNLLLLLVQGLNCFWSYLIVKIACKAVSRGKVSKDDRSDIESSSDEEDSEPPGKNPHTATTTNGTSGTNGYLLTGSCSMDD
UniProt Q00534, whole entry, looked up: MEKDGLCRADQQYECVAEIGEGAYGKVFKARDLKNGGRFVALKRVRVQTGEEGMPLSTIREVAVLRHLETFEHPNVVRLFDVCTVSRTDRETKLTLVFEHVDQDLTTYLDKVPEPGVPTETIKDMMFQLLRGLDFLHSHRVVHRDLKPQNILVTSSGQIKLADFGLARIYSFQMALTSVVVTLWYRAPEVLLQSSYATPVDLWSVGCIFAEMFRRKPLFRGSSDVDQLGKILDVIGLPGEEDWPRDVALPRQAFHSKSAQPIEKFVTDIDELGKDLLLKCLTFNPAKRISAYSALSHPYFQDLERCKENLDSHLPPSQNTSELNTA
UniProt Q7Z7K6: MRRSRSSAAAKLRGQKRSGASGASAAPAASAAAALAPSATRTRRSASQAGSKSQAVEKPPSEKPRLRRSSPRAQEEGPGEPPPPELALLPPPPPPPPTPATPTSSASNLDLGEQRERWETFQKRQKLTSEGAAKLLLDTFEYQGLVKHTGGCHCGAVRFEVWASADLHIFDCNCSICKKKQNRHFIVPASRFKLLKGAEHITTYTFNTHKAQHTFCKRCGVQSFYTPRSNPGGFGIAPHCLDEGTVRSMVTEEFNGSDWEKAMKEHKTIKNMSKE
UniProt P50613: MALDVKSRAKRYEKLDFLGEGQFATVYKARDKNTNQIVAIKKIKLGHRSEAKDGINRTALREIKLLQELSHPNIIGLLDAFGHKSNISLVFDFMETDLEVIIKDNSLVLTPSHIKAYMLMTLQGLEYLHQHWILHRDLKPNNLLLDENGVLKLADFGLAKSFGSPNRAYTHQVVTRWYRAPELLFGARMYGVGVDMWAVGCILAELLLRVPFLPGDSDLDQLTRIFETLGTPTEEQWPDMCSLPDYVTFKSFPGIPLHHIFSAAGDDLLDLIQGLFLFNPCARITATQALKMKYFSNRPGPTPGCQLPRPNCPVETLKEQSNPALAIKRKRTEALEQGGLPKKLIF
UniProt Q9UQ88: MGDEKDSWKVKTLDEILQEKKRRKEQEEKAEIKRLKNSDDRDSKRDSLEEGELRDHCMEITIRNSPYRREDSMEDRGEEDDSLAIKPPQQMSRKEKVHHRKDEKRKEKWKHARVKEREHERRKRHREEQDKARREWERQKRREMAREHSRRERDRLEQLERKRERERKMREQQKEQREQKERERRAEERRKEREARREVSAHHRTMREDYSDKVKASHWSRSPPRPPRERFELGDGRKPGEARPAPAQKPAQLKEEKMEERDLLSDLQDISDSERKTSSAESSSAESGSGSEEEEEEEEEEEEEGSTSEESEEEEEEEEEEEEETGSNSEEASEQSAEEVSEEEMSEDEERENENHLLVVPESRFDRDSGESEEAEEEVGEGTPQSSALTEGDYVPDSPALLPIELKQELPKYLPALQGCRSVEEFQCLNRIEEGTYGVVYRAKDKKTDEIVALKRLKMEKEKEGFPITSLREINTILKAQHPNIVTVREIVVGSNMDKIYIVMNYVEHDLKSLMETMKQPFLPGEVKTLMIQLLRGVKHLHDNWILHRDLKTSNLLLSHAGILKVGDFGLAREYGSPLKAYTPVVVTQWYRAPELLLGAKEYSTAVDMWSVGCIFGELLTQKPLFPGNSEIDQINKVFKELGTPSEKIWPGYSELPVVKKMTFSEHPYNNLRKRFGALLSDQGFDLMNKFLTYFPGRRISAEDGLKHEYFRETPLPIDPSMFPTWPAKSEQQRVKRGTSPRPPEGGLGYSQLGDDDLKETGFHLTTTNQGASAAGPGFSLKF
UniProt Q8TCZ2: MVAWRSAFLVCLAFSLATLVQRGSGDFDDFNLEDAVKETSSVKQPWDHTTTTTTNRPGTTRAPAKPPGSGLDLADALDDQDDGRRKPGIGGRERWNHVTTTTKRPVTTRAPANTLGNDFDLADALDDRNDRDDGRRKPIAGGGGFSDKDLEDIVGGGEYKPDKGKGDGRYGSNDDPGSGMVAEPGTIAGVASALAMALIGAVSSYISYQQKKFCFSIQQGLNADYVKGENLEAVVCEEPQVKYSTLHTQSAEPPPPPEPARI
UniProt Q9BXL8: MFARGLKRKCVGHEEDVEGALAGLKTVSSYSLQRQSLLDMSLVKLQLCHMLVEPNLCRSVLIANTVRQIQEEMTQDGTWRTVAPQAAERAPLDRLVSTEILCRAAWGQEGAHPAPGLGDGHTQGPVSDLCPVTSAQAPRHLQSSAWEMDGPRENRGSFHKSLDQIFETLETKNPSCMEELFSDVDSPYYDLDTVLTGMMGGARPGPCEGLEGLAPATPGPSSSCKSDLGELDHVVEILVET
UniProt Q9UIB8: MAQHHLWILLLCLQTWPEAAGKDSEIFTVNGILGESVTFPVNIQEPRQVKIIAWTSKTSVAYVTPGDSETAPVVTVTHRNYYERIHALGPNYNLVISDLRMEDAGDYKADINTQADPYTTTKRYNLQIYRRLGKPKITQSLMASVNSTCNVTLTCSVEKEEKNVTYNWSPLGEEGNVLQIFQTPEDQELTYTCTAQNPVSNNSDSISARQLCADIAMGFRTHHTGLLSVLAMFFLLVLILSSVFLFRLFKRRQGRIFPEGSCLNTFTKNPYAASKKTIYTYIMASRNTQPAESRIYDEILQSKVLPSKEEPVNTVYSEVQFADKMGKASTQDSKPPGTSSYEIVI
UniProt Q5JTW2: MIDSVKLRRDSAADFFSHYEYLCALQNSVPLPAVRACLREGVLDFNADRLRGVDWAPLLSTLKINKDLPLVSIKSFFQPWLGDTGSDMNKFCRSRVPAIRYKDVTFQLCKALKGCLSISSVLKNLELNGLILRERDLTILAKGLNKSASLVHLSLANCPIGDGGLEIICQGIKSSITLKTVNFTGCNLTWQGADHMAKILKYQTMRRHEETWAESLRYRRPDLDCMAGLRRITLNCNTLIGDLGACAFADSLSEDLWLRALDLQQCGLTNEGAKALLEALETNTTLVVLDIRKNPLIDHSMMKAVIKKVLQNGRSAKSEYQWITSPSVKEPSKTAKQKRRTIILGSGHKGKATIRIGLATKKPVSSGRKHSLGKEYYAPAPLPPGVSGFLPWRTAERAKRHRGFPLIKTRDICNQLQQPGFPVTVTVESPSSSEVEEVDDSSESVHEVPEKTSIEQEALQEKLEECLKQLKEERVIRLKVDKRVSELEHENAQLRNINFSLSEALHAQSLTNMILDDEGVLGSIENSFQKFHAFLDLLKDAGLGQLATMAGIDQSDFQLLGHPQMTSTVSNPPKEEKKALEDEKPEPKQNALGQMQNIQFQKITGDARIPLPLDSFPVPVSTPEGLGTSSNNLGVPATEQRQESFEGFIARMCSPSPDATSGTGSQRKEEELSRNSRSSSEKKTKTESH
UniProt Q86XR8: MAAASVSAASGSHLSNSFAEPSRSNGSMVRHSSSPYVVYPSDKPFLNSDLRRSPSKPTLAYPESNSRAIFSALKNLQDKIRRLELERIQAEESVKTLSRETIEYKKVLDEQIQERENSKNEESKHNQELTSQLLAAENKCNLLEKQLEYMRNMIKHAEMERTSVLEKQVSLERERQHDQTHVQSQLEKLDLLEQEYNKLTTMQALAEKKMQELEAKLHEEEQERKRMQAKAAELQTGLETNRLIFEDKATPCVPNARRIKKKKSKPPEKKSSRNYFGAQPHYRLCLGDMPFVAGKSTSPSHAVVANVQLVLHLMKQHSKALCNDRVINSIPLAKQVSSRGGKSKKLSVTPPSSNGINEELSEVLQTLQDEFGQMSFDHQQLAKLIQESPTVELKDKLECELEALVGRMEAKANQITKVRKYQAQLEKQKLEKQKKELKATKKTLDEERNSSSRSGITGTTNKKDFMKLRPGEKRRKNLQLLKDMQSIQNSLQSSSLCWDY
UniProt P53567: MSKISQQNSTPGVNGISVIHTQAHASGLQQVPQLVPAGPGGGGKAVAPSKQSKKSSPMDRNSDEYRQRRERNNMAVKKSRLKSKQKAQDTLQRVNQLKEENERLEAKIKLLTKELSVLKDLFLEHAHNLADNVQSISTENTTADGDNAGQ

Assays:
Assay in all cases: log2 fold change, soluble protein after heating vs DMSO (PISA); higher = thermal stabilisation; K562 lysate, 10 uM; active = over 0.2 and 3.5 SD of the protein, either way, in both replicates (recomputed)
[1] = compound: C1=CC=C(C=C1)[C@H](COC2=CC3=C(C=C2)NC(=O)N3)NC(=O)C4=CC=CN(C4=O)CC5=CC(=C(C=C5)F)F
Procedure, shortened: (§1)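 Dounce homogenisation of K562 pellets in PBS pH 7.4 with 1 mM MgCl2 produced a crude extract, used at 1 mg/mL protein. Exposure to 10 μM compound lasted 30 min, and aliquots were then heated for 3 min across 48°C-58°C, pooled and brought to 0.5% NP-40 at 4°C. The supernatant after 21,000xg for 90 min was quantified by TMTpro 16plex LC-MS/MS with channel sums equalised. Duplicate values are given as log-two fold change in thermal stability relative to solvent controls.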

[2] = compound: CC1=C(SC2=C1C(=N[C@H](C3=NN=C(N32)C)CC(=O)N)C4=CC=C(C=C4)Cl)C
Procedure, shortened: as §1

[3] = compound: CC1=C2C(=CC=C1)N=C(N(C2=O)C3=CC=CC=C3C)CN4C=NC5=C(N=CN=C54)N
Procedure, shortened: as §1

[4] = compound: Cc1sc2c(c1C)C(c1ccc(Cl)cc1)=N[C@@H](CC(=O)OC(C)(C)C)c1nnc(C)n1-2
Procedure, shortened: as §1

[5] = compound: c1ccc([C@@H]2C[C@H]2NC2CCNCC2)cc1
Procedure, shortened: as §1

Measured: log2 fold change

CDCA5 (UniProt Q96FF9)
inactive: [1] 0.141 | [2] -0.035 | [3] 0.049 | [4] 0.002 | [5] 0.044

CDC45 isoform 3 (UniProt O75419)
inactive: [1] 0.076 | [2] -0.01 | [3] 0 | [4] -0.018 | [5] 0.026

CDSN (UniProt Q15517)
inactive: [1] -0.217 | [2] 0.11 | [3] -0.076 | [4] -0.094 | [5] 0.02

CDKN2AIP (UniProt Q9NXV6)
inactive: [1] 0.01 | [2] 0.024 | [3] 0.027 | [4] -0.041 | [5] -0.013

CDAN1 (UniProt Q8IWY9)
inactive: [1] -0.011 | [2] 0.011 | [3] 0.062 | [4] 0.026 | [5] 0.005

CERS6 isoform 2 (UniProt Q6ZMG9)
inactive: [1] 0.132 | [2] -0.044 | [3] 0.012 | [4] -0.049 | [5] 0.005

CDK6 (UniProt Q00534)
inactive: [1] -0.024 | [2] -0.018 | [3] -0.011 | [4] 0 | [5] 0.032

CENPV (UniProt Q7Z7K6)
inactive: [1] 0.059 | [2] -0.217 | [3] -0.201 | [5] 0.166

CDK7 (UniProt P50613)
inactive: [1] 0.016 | [2] 0.014 | [3] 0.012 | [4] -0.054 | [5] -0.013

CEFIP (UniProt Q711Q0)
inactive: [1] 0.033 | [2] 0.061 | [3] -0.007 | [5] -0.015

CDK11A (UniProt Q9UQ88)
inactive: [1] -0.046 | [2] 0.025 | [4] 0.091 | [5] 0

CD99L2 isoform 5 (UniProt Q8TCZ2)
inactive: [3] 0.095 | [4] -0.064 | [5] -0.096

Copied from the listing (2 entries):
CDCA5 (UniProt Q96FF9)
inactive: [1] 0.141 | [2] -0.035 | [3] 0.049 | [4] 0.002 | [5] 0.044

CDC45 isoform 3 (UniProt O75419)
inactive: [1] 0.076 | [2] -0.01 | [3] 0 | [4] -0.018 | [5] 0.026

(list continues)

CDCA4 (UniProt Q9BXL8)
inactive: [3] 0.347 | [4] 0.032

CD84 (UniProt Q9UIB8)
inactive: [1] 0.08 | [2] 0.081 | [5] 0.079

CEP78 isoform 2 (UniProt Q5JTW2)
inactive: [4] -0.053

CEP57 (UniProt Q86XR8)
inactive: [5] -0.049

CEBPG (UniProt P53567)
inactive: [1] 0.206 | [2] 0.116 | [5] -0.055
